This note sets out measurements from publication PMC10665399.

By UniProt entry, the sequences of proteins in these tests, tags left out.
UniProt Q9H7E9: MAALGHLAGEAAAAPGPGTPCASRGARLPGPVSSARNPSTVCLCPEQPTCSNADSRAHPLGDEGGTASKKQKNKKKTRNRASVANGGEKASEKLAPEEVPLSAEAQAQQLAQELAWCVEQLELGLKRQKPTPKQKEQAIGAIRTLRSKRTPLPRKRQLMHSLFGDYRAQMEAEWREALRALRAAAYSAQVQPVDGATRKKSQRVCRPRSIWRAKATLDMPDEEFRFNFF
UniProt Q92879: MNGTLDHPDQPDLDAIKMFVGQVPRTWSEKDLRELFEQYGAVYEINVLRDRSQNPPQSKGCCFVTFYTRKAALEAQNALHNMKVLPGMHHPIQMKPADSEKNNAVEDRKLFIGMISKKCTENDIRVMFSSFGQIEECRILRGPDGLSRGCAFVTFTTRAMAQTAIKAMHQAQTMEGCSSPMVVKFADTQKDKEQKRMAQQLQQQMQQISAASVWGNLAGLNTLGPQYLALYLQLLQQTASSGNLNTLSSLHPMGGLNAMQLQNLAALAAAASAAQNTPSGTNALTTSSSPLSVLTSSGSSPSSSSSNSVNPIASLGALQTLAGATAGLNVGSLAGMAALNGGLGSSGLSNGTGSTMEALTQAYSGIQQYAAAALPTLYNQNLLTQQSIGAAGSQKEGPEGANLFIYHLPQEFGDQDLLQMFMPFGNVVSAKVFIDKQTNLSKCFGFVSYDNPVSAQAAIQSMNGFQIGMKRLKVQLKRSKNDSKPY

Assay [1] deals with T1, RNA binding motif protein 42 (RBM42), endogenous (human) (UniProt Q9BTD8).
T1 sequence: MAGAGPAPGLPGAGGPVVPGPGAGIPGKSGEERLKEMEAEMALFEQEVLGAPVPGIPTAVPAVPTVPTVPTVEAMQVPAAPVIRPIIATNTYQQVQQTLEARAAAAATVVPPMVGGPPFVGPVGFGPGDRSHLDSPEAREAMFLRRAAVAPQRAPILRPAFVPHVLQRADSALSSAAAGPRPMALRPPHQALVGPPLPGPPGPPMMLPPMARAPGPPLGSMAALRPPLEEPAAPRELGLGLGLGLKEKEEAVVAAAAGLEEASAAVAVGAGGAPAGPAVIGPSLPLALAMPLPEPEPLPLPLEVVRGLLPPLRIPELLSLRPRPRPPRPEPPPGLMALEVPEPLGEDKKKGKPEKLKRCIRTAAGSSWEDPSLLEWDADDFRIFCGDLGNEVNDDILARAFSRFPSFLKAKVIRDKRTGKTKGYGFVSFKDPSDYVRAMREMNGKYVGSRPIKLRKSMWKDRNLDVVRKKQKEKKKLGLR
The experiment in a line: co-IP; immunoprecipitation of RBM42 with selected proximal proteins; set-up in Supplementary Fig. 6d, not shown.

Assay [2] concerns the target T1, RNA binding motif protein 42 (RBM42), endogenous (human). As to the kind of experiment: co-IP; endogenous RBM42 precipitated with RBM42 antibody (beads-only as control) from whole-cell lysates of HCT116 cells treated with 10 μM VP16 for 18 h or left untreated; immunoblot.

No constants are given. Whether binding was seen depends on the method and setting. In cells and extracts the contact can be indirect. Some results given as binding are weak or reduced against the parent protein; the word gives no strength.

As for C8orff33 (from UniProt Q9H7E9 1-229), the binding entry in assay [1] is on record as “binds”. The same measure, in the same setting: to hnRNP K (from UniProt P61978 1-463) belongs “binds”.

Regarding “CUG binding protein 1 (CUGBP1) (from UniProt Q92879 1-486)”, the binding result in assay [2] was “binds”.

B1: LSM4 (protein, UniProt Q9Y4Z0 1-139)
chain: MLPLSLLKTAQNHPMLVELKNGETYNGHLVSCDNWMNINLREVICTSRDGDKFWRMPECYIRGSTIKYLRIPDEIIDMVKEEVVAKGRGRGGLQQQKQQKGRGMGGAGRGVFGGRGRGGIPGTGRGQPEKKPGRQAGKQ
Take B1: the binding entry in assay [1] is reported as “binds”.
